Some of these results come from one statement about several compounds together.
What was measured:
[1] = system: Myzus persicae; assay: Myzus test (MYZUPE spray treatment); format: in vivo; conditions: 500 g/ha, sprayed leaf discs of Chinese cabbage
[2] = system: Tetranychus urticae; assay: Tetranychus test, OP-resistant (TETRUR spray treatment); format: in vivo; conditions: 100 g/ha, bean plants
[3] = system: Spodoptera frugiperda; assay: Spodoptera frugiperda test (SPODFR spray treatment); format: in vivo; conditions: 500 g/ha, sprayed leaf discs of maize
[4] = system: Lucilia cuprina larvae; assay: Lucilia cuprina test (LUCICU); format: in vivo; conditions: 100 ppm, treated horse meat
[5] = system: Boophilus microplus; assay: Boophilus microplus test (BOOPMI injection); format: in vivo; conditions: 20 μg/animal, injection into the abdomen
[6] = system: Echinocloa crus-galli; assay: Post-emergence herbicidal effect (Example No. 8); format: in vivo; conditions: 320 g/ha a.i., about 3 weeks
[7] = system: Lolium multiflorum; assay: Post-emergence herbicidal effect (Example No. 8); format: in vivo; conditions: 320 g/ha a.i., about 3 weeks
[8] = system: Setaria viridis; assay: Post-emergence herbicidal effect (Example No. 8); format: in vivo; conditions: 320 g/ha a.i., about 3 weeks
[9] = system: Phaedon cochleariae; assay: Phaedon test (PHAECO spray treatment); conditions: 500 g/ha, sprayed leaf discs of Chinese cabbage

COCC1(C)NC(=O)C(c2cc(-c3ccc(Cl)cc3)ccc2C)=C1O (stereo not drawn) [I-a-1]
≥ 80%: activity (effect in %, aphids killed) [1] | activity (effect in %, spider mites killed) [2] | activity (effect in %, caterpillars killed) [3] | activity (destruction in %, larvae killed) [4] | activity (effect in %, no fertile eggs laid) [5] | post-emergence effect (herbicidal effect in percent) [6] | post-emergence effect (herbicidal effect in percent) [7] | post-emergence effect (herbicidal effect in percent) [8] | activity (effect in %, beetle larvae killed) [9]

Reference: patent publication US8173697B2, “Alkoxyalkyl-substituted cyclic keto-enols” (Bayer CropScience AG, priority 2006, dated 2012)
